PubChem BioAssay AID1159584 – Peter MacCallum Cancer Centre | 2016
Purpose: 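Genes whose loss is lethal only together with E-cadherin loss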 (primary screen). Cells: human MCF10A breast epithelial cells, parental and CDH1-null. Reagents: siRNA against human genes. Read-out: 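ATP luminescence (CellTiter-Glo) viability per line relative to mean mock wells over all plates, and the ratio of CDH1-null to parental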. Reading the numbers: CDH1-null / parental viability ratio: higher = CDH1-null cells survive relatively better than parental.
Shown is a random part of about 18,000 deposited reagents. Further read-outs or replicates are left out here. Not given: the amount of reagent, the time to read-out.

With knock-down of CYSRT1 (GeneID 375791) the results were CDH1-null / parental viability ratio 1.02.
After knock-down of TMED1 (GeneID 11018) the results were CDH1-null / parental viability ratio 0.98.
After knock-down of GPR161 (GeneID 23432), the record shows CDH1-null / parental viability ratio 0.83.
After knock-down of MATCAP2 (GeneID 23366), the record shows CDH1-null / parental viability ratio 1.08.
Silencing of ROPN1B (GeneID 152015) resulted in: CDH1-null / parental viability ratio 0.94.
RRM2B (GeneID 50484) gave CDH1-null / parental viability ratio 1.31.
With knock-down of KLHL11 (GeneID 55175), the record shows CDH1-null / parental viability ratio 1.12.
GPRASP2 (GeneID 114928) gave CDH1-null / parental viability ratio 0.83.
MIEF2 (GeneID 125170) showed CDH1-null / parental viability ratio 1.88.
Depletion of CPSF2 (GeneID 53981) gave: CDH1-null / parental viability ratio 1.17.
With knock-down of PNPLA3 (GeneID 80339), the screen gave CDH1-null / parental viability ratio 1.02.
With knock-down of NTMT1 (GeneID 28989), the record shows CDH1-null / parental viability ratio 1.01.
PCYT2 (GeneID 5833) showed CDH1-null / parental viability ratio 0.8.
Against SLA (GeneID 6503), the entry reads CDH1-null / parental viability ratio 0.66.
Knock-down of GPR152 (GeneID 390212) gave: CDH1-null / parental viability ratio 0.8.
Knock-down of LPO (GeneID 4025) came out at: CDH1-null / parental viability ratio 1.01.

Reformatted: 5 of the entries above
Gene | CDH1-null / parental viability ratio
CYSRT1 (GeneID 375791) | 1.02
TMED1 (GeneID 11018) | 0.98
GPR161 (GeneID 23432) | 0.83
MATCAP2 (GeneID 23366) | 1.08
ROPN1B (GeneID 152015) | 0.94

Next reagents follow.
Knock-down of POLE (GeneID 5426) came out at: CDH1-null / parental viability ratio 0.94.
After knock-down of CGA (GeneID 1081), the screen gave CDH1-null / parental viability ratio 1.11.
Knock-down of ARHGAP35 (GeneID 2909) came out at: CDH1-null / parental viability ratio 1.11.
For XPO4 (GeneID 64328), the values are CDH1-null / parental viability ratio 1.32.
DNAH6 (GeneID 1768) showed CDH1-null / parental viability ratio 1.14.
Knock-down of SLC15A4 (GeneID 121260) gave: CDH1-null / parental viability ratio 1.15.
ELF1 (GeneID 1997) gave CDH1-null / parental viability ratio 1.29.
For TFDP2 (GeneID 7029), the entry reads CDH1-null / parental viability ratio 1.1.
Against GDF3 (GeneID 9573), the entry reads CDH1-null / parental viability ratio 1.05.
Depletion of MYCN (GeneID 4613) gave: CDH1-null / parental viability ratio 1.05.
After knock-down of FHL5 (GeneID 9457) the results were CDH1-null / parental viability ratio 1.05.
After knock-down of BAAT (GeneID 570), the screen gave CDH1-null / parental viability ratio 0.94.
IL12RB1 (GeneID 3594) showed CDH1-null / parental viability ratio 0.91.
With knock-down of FBXL20 (GeneID 84961), the screen gave CDH1-null / parental viability ratio 0.87.
Knock-down of CDC25C (GeneID 995) gave: CDH1-null / parental viability ratio 1.63.
With knock-down of PGM1 (GeneID 5236), the screen gave CDH1-null / parental viability ratio 1.01.
Silencing of DHTKD1 (GeneID 55526) resulted in: CDH1-null / parental viability ratio 1.03.
Knock-down of D2HGDH (GeneID 728294) came out at: CDH1-null / parental viability ratio 1.41.
SLC30A10 (GeneID 55532) showed CDH1-null / parental viability ratio 1.09.
